Assay results published in PMC10388794 (Journal of Enzyme Inhibition and Medicinal Chemistry, 2023).

Tested on: Aβ1–42
Assay: Brain total Aβ1–42 content by mouse ELISA kit
Assay type: in vivo
Conditions: mice; T14-A24 10 mg/kg po, donepezil 15 mg/kg po; vs model group

**Q.** `COc1cc2c(cc1OC)C(=O)C(CC1CCN(Cc3ccccc3)CC1)C2` (stereo not shown) [Donepezil] was tested. Which “total level of Aβ1–42 in brain” value did it give?
**A.** remarkably decreased
